In experiment [1] the target is T1, mouse EDEM1 fused to an hemagglutinin (HA) tag (mouse) (UniProt Q925U4).
T1 sequence: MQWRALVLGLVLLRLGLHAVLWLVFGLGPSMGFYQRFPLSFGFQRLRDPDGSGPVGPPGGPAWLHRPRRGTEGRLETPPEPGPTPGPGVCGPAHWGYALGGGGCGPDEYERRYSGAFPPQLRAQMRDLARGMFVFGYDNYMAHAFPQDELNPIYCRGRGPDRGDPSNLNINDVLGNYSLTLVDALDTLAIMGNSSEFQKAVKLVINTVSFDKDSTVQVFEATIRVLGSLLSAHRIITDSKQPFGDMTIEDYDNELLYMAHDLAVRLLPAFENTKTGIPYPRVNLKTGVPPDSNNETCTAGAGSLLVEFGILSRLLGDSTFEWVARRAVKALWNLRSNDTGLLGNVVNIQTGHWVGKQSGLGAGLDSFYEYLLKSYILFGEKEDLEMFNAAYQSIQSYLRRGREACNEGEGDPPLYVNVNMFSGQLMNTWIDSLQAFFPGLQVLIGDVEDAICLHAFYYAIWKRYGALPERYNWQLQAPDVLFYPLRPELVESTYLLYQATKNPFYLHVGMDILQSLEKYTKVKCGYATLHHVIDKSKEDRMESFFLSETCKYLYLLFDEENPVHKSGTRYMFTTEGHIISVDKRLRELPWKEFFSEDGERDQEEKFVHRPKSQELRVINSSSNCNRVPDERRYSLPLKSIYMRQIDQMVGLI
Kind of experiment: co-IP.

Experiment [2] has as its target T2, mouse EDEM2 fused to an hemagglutinin (HA) tag (mouse) (UniProt Q8BJT9).
T2 sequence: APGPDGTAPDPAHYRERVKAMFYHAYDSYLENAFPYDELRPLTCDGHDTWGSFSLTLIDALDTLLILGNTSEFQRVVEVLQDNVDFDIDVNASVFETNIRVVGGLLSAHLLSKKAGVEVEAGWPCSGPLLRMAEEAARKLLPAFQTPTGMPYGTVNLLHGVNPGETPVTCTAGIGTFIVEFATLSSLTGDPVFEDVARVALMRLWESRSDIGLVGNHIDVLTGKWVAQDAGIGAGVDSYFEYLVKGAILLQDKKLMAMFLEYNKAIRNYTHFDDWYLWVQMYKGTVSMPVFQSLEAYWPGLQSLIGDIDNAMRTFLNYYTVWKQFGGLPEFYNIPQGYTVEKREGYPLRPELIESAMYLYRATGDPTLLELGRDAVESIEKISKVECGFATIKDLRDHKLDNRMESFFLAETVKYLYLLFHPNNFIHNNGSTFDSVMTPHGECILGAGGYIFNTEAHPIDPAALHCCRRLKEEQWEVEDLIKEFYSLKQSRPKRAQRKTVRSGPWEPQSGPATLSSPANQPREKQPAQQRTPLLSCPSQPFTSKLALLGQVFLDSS
Kind of experiment: co-IP.

Results are given in words; binding and its absence hold for the method and conditions named. Binding seen in cells or lysates may run through a third protein. Some binding calls cover weakened binding; strength is not graded here. Sequences can lack the tags named with a protein.

B1: BACE457, the pancreatic isoform of human β-secretase (protein, UniProt P56817-3 46-457)
chain: ETDEEPEEPGRRGSFVEMVDNLRGKSGQGYYVEMTVGSPPQTLNILVDTGSSNFAVGAAPHPFLHRYYQRQLSSTYRDLRKGVYVPYTQGKWEGELGTDLPDDSLEPFFDSLVKQTHVPNLFSLQLCGAGFPLNQSEVLASVGGSMIIGGIDHSLYTGSLWYTPIRREWYYEVIIVRVEINGQDLKMDCKEYNYDKSIVDSGTTNLRLPKKVFEAAVKSIKAASSTEKFPDGFWLGEQLVCWQAGTTPWNIFPVISLYLMGEVTNQSFRITILPQQYLRPVEDVATSQDDCYKFAISQSSTGTVMGAVIMEGFYVVFDRARKRIGFAVSACHVHDEFRTAAVEGPFVTLDMEDCGYNIPQTDESTLMTIAYVMAAICALFMLPLCLMVCQWRCLRCLRQQHDDFADDISLLK
In the case of B1, the binding result in experiment [1] and in experiment [2] was “binds” each time.

For the origin of these results see PMC4340280.
